Experimental data as given in article PMC9883245.
Results are given in words; binding and its absence hold for the method and conditions named. Binding seen in cells or lysates may run through a third protein. Some binding calls cover weakened binding; strength is not graded here. For some assays here: Tags and fused reporters may be left off the sequences shown.

Sequences of proteins named here, by UniProt entry; tags and fusion partners are left off.
UniProt P35222: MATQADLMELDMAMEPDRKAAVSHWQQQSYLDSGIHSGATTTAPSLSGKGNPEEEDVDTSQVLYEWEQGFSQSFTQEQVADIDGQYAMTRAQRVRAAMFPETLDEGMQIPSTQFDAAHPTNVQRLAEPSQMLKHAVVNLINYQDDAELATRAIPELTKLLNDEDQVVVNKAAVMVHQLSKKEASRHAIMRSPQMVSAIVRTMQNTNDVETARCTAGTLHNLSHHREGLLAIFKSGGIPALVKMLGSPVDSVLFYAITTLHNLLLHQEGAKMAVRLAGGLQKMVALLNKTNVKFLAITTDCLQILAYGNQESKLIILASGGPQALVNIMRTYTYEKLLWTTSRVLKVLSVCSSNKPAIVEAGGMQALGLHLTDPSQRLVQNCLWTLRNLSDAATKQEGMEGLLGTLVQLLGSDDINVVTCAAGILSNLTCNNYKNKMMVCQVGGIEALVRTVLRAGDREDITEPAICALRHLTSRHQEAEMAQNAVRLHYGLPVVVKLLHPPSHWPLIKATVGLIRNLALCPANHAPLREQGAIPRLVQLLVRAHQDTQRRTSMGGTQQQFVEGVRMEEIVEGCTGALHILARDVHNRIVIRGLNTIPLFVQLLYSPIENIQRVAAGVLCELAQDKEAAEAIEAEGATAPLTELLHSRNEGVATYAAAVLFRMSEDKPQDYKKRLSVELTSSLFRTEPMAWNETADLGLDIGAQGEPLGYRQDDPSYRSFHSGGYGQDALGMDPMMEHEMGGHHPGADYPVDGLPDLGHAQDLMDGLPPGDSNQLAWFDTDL

How the values were obtained:
GST-USP39 (human) = target: T1, GST-USP39 (human) (UniProt Q53GS9); assay: pull-down; purified GST-tagged protein incubated with lysate of HEK 293T cells expressing HA-β-catenin (and Flag-Ub), 4 h at 4 °C, western blot; only the target purified
T1 sequence: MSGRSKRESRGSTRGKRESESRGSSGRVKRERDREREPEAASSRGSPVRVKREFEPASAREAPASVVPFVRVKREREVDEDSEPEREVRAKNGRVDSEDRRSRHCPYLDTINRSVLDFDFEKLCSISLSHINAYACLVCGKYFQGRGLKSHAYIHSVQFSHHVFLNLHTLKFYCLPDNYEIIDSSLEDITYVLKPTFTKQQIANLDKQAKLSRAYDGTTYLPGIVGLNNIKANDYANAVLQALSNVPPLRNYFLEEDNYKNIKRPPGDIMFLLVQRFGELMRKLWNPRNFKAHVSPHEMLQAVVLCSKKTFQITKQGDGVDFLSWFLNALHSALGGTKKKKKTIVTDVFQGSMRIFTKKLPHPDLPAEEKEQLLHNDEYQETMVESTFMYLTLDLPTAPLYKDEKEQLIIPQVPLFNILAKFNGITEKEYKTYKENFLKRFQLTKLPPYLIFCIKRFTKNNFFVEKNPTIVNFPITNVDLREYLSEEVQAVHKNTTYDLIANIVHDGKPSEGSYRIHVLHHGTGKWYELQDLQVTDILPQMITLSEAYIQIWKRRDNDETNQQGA

[1] = target: T2, Ubiquitin-specific protease 39 (USP39) (human) (UniProt Q53GS9); assay: co-IP; PLC/PRF/5 cell lysate in RIPA buffer with PMSF, protein A/protein G agarose beads, 4 h at 4 °C, western blot
T2 sequence: T1 sequence

Row | Substance | binding (GST-USP39 (human)) | binding [1]
1 | HA-β-catenin (from UniProt P35222 1-781) | binds | 
2 | β-catenin (from UniProt P35222 1-781) |  | binds
